Here are results for two sequences from publication PMC11514473, “The transition state for coupled folding and binding of a disordered DNA binding domain resembles the unbound state” (Nucleic Acids Research, 2024).

The test system of series [1] is T1, 285bZIP R302G C300S,C310S,C337S,R302G (human).
T1 sequence (looked up): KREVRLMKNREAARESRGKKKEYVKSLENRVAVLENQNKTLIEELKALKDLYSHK
Briefly: stopped-flow fluorescence (dissociation). To be noted: koff 960 +/- 20 s-1, kon and KD not determined, 10 mM Mg2+; 10 mM MES pH 6.5, 150 mM NaCl, 10 mM MgCl2, 0.05% Tween-20, 25 C; recombinant protein; residues 285-339; protein details: extra N-terminal Gly; label: 5' Alexa Fluor 488; folded or branched DNA.

For series [2], the system named is T2, CREB 285bZIP wild type (pseudo-WT, Cys to Ser) C300S,C310S,C337S (human).
T2 sequence (looked up): T1 sequence (looked up) with G18R
Briefly: competition with a labelled probe. To be noted: unlabelled competitor 0.25-4 uM displaces N1, 10 mM Mg2+; 10 mM MES pH 6.5, 150 mM NaCl, 10 mM MgCl2, 0.05% Tween-20, 25 C; recombinant protein; residues 285-339.

Where a chain is given by its changes, count along the chain named. For at least one entry, the source does not settle the construct or the ends of the probe. For some assays here: A weaker result is weaker than the reference pair of the same experiment. At least one verdict rests on a figure or table, not on a statement of the authors. Tags and fusion partners may be left off the protein sequences shown.

As to “CCTGACGTCAGCCCCCTGACGTCAGG [AlexaFluor488-CREh]”, in series [1], the binding result is “binds more weakly”.

As to “CCTGACGTCATCCG (double strand) [14 bp competitor CRE DNA]”, in series [2], the binding result is reported as “binds”.
